These are yes or no findings as the source states them, for the method shown.
Assays:
Assay in all cases: SPR; Biacore T200, 25 °C; apoDDC, holoDDC and holoSHMT immobilised on a CM5 chip by amine coupling; analytes PNPO and albumin 100 to 1.5625 µM in PBS-P (10 mM phosphate pH 7.4, 140 mM NaCl, 3 mM KCl, 0.05% P20), 50 µL/min; both purified
[1] = molecular target: T1, human dopa decarboxylase, holo form (human, UniProt P20711 1-480, PLP as internal aldimine on Lys303)
T1 construct: also called holoDDC; DDC; source: E. coli BL21(DE3)pLysS, purified (Histrap Ni2+ column, dialysis against PLP); not shown: His tag (from the Histrap column)
T1 sequence (looked up): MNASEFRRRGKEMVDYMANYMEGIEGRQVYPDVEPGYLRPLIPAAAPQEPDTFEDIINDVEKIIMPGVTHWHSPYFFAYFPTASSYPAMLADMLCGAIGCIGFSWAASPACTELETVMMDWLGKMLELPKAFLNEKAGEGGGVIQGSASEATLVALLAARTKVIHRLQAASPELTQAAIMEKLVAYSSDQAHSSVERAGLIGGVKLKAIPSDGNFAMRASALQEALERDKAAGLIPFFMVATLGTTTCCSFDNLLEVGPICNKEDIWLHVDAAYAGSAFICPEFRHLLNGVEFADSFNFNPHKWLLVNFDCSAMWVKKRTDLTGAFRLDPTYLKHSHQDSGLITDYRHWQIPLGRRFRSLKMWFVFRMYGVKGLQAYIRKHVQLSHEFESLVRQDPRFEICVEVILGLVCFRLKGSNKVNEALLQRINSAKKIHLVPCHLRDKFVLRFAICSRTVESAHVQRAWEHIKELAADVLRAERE

[2] = molecular target: T2, human dopa decarboxylase, apo form (human, UniProt P20711 1-480)
T2 construct: same chain as m2 without PLP; Made from holoDDC by removal of the cofactor; also called apoDDC; source: E. coli BL21(DE3)pLysS, purified (Histrap Ni2+ column); PLP removed with 5 mM hydroxylamine and dialysis; not shown: His tag (from the Histrap column)
T2 sequence (looked up): T1 sequence (looked up)

[3] = molecular target: T3, serine hydroxymethyltransferase (rabbit cytoplasmic), holo form (rabbit) (UniProt P07511)
T3 sequence (chain, PLP cofactor (holo form), residue not stated): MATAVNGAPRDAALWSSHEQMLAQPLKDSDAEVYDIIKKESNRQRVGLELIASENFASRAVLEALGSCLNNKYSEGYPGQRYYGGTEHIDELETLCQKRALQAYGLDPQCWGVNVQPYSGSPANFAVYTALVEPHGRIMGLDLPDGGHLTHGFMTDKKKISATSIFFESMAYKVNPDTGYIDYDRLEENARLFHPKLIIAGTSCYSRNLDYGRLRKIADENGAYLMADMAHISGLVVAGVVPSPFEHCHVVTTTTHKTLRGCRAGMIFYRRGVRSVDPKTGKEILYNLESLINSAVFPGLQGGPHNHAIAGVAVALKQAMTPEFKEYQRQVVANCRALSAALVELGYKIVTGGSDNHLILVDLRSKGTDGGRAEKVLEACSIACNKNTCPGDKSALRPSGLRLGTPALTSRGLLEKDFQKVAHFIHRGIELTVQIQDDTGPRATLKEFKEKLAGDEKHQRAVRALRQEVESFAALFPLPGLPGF

Measured: binding

albumin
no binding (tested: 100 μM): all assays above
